Structures are written as SMILES. The list shows a part of the results. Single values are uncertain, as repeats are few or missing.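 Imaging used 1,536-well plates; nuclei positive for cleaved PARP by antibody were divided by total DNA-stained nuclei to yield the apoptosis fraction. Doses for screening kept most cells viable, and cell lines differ markedly in resting and induced cleaved-PARP levels.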

For the assay, the system named is SkMel2. Put plainly: cleaved PARP positive nuclei fraction relative to DMSO control; melanoma cells; higher = more apoptosis. To be noted: library dose: low library concentration; 72 h.
In the case of `N.N.[Cl][Pt][Cl]` [cisplatin] + Cc1cc(N2CCOCC2)cc2[nH]c(-c3c(NC[C@@H](O)c4cccc(Cl)c4)cc[nH]c3=O)nc12 [BMS536924] (first compound 1.6 µM, partner dose 0.2 µM), the “cleaved PARP positive nuclei fraction” value amounted to 100%.
As to `CC1(C)CCC(c2ccc(Cl)cc2)=C(CN2CCN(c3ccc(C(=O)NS(=O)(=O)c4ccc(N[C@H](CCN5CCOCC5)CSc5ccccc5)c(S(=O)(=O)C(F)(F)F)c4)cc3)CC2)C1` + O=C(Oc1ccc([N+](=O)[O-])cc1)N1CCC(C(O)(c2ccc3c(c2)OCO3)c2ccc3c(c2)OCO3)CC1 [JZL184] (first compound 0.4 µM, partner dose 1 µM), the “cleaved PARP positive nuclei fraction” value came out at 99.1%.
Take `Cc1cc(Nc2cc(N3CCN(C)CC3)nc(/C=C/c3ccccc3)n2)n[nH]1` + C/C(O)=C(\C#N)C(=O)Nc1cc(Br)ccc1Br [LFM-A13] (first compound 0.04 µM, partner dose 2 µM): the “cleaved PARP positive nuclei fraction” value was determined as 106%.
In the case of `N.N.[Cl][Pt][Cl]` [cisplatin] + OCCn1cc(-c2cnc3nnn(Cc4ccc5ncccc5c4)c3n2)cn1 [PF04217903] (first compound 1.6 µM, partner dose 1 µM) it was 71.3%; in that of `Cn1cc(C2=C(c3cn(C4CCN(Cc5ccccn5)CC4)c4ccccc34)C(=O)NC2=O)c2ccccc21` [Enzastaurin] + COc1ccc(COc2ccc(Cc3cnc(N)nc3N)cc2OC)cc1 [GW2580] (first compound 0.8 µM, partner dose 1 µM), 270%; in that of `Cn1cc(C2=C(c3cn(C4CCN(Cc5ccccn5)CC4)c4ccccc34)C(=O)NC2=O)c2ccccc21` [Enzastaurin] + c1cc(-c2cnn3cc(-c4ccc(OCCN5CCCCC5)cc4)cnc23)ccn1 [Dorsomorphin] (first compound 0.8 µM, partner dose 0.4 µM), 40%.
For the compound `C[As](C)SC[C@H](NC(=O)CC[C@H](N)C(=O)O)C(=O)NCC(=O)O` [Darinaparsin] + C=CCn1c(=O)c2cnc(Nc3ccc(N4CCN(C)CC4)cc3)nc2n1-c1cccc(C(C)(C)O)n1 [MK1775] (first compound 0.4 µM, partner dose 0.02 µM), the “cleaved PARP positive nuclei fraction” value stood at 62%.
For the compound `Cn1cc(C2=C(c3cn(C4CCN(Cc5ccccn5)CC4)c4ccccc34)C(=O)NC2=O)c2ccccc21` [Enzastaurin] + OCCn1cc(-c2cnc3nnn(Cc4ccc5ncccc5c4)c3n2)cn1 [PF04217903] (first compound 0.8 µM, partner dose 1 µM), the “cleaved PARP positive nuclei fraction” value was 231%.
In the case of `N.N.[Cl][Pt][Cl]` [cisplatin] + CN(NC(=O)CC(=O)NN(C)C(=S)c1ccccc1)C(=S)c1ccccc1 [STA4783] (first compound 1.6 µM, partner dose 0.006 µM), the “cleaved PARP positive nuclei fraction” value is 66.8%.
For the compound `C=C(c1ccc(C(=O)O)cc1)c1cc2c(cc1C)C(C)(C)CCC2(C)C` [Bexarotene] + O=C(Oc1ccc([N+](=O)[O-])cc1)N1CCC(C(O)(c2ccc3c(c2)OCO3)c2ccc3c(c2)OCO3)CC1 [JZL184] (first compound 2 µM, partner dose 1 µM), the “cleaved PARP positive nuclei fraction” value came out at 77.9%.
Take `Cn1sc(=O)n(Cc2ccccc2)c1=O` + O=C(Oc1ccc([N+](=O)[O-])cc1)N1CCC(C(O)(c2ccc3c(c2)OCO3)c2ccc3c(c2)OCO3)CC1 [JZL184] (first compound 0.4 µM, partner dose 1 µM): the “cleaved PARP positive nuclei fraction” value turned out to be 57.2%.
Turning to `C[As](C)SC[C@H](NC(=O)CC[C@H](N)C(=O)O)C(=O)NCC(=O)O` [Darinaparsin] + COc1cc(Nc2ncc(F)c(Nc3ccc4c(n3)NC(=O)C(C)(C)O4)n2)cc(OC)c1OC [Tamatinib] (first compound 0.4 µM, partner dose 0.4 µM), the “cleaved PARP positive nuclei fraction” value was found to be 140%.
Consider `CNC(=O)c1cc(Oc2ccc(NC(=O)Nc3ccc(Cl)c(C(F)(F)F)c3)cc2)ccn1` [sorafenib] + Cc1cc(SCc2sc(-c3ccc(C(F)(F)F)c(F)c3)nc2C)ccc1OCC(=O)O [GW0742] (first compound 0.4 µM, partner dose 2 µM), for which the “cleaved PARP positive nuclei fraction” value was found to be 83.8%.
In the case of `Cn1cc(C2=C(c3cn(C4CCN(Cc5ccccn5)CC4)c4ccccc34)C(=O)NC2=O)c2ccccc21` [Enzastaurin] + COC(=O)c1sccc1S(=O)(=O)Nc1ccc(Nc2ccccc2)cc1OC [GSK0660] (first compound 0.8 µM, partner dose 1 µM) it was 117%.

Values taken from the supplement of paper PMC4604168 (melanoma cell lines).
